The nature of the series: Gelation assay (vial inversion). To be noted: upon irradiation 365 nm; for formation of gelatin hydrogel: 5% gelatin; for hydrogelation of acrylamide: 10% acrylamide/bis-acrylamide (29:1).

Regarding `CC(=O)[O][Pt]([NH2])([NH2])([Cl])([Cl])[O]C(C)=O` [cisPt(IV)-1], the “formation of gelatin hydrogel” value was “clearly observed” and the hydrogelation of acrylamide result was “transformed into a solid-like gel”.

With `N.N.[Cl][Pt][Cl]` [cisplatin, reference compound], the “formation of gelatin hydrogel” value is “not” and the hydrogelation of acrylamide result is “not”.
